Patent US20190247353A1, “ACNE STRAIN-SELECTIVE ANTIBACTERIAL AGENT” (MOMOTANI JUNTENKAN CO., LTD., priority 2016, published 2019)
At least one structure is not confirmed: it was looked up by name or label, or the drawing left a doubt.

Test system: HL053PA1 strain (RT4) and HL043PA1 strain (RT5) versus HL110PA3 strain (RT6)
Experiment: Strain-selective antibacterial activity (average of MICRT6/MICRT4 and MICRT6/MICRT5)
Type: cell-based, Propionibacterium acnes
Settings: monoacylglycerols, Example 3
From the text: Herein, “acne strain-selective antibacterial activity” or “strain-selective antibacterial activity” means an index indicating better inhibition of growth of a dominant strain in acne patients compared to that of a dominant strain in healthy subjects. It is expressed by the average value of the values (MICRT6/MICRT4, and MICRT6/MICRTS) obtained by dividing the minimum inhibitory concentration (MIC) of an object substance with respect to the dominant strain in healthy subjects (RT6 strain) (MICRT6) respectively by the MIC of the object substance with respect to the dominant strain in acne patients (RT4 strain) (MICRT4), and by the MIC of the object substance with respect to the dominant strain in acne patients (RT5 strain) (MICRT5).
The strain-selective antibacterial activity of each test substance (Table 2, right-most column) was evaluated based on the following rating criteria (Table 3). When the strain-selective antibacterial activity is indicated by a numerical range, the rating was based on the minimum value thereof.

Row | Compound | Rating
1 | CCCCCCCCCCCCCCC(=O)OCC(O)CO (stereo not drawn) [Monopentadecanoin] | + (More than 2 and not more than 6)
2 | CCCCCCCCCCCCCC(=O)OCC(O)CO (stereo not drawn) [Monomyristin] | + (More than 2 and not more than 6)
3 | CCCCCCCCCCCCCCCC(=O)OCC(O)CO (stereo not drawn) [Monopalmitin] | ++ (More than 6 and not more than 20)
